Values from PubChem BioAssay AID743121 (NCATS, 2013)
Aim: 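Partners whose loss is lethal together with topoisomerase I blockade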 (primary screen). System: MDA-MB-231 cells, a human breast cancer line. Reagents: single siRNA against human genes, 20 nM siRNA (0.8 pmol per well). Timing: 120 h (drug added 48 h after transfection, read 72 h later). Treatment: camptothecin 20 nM (about EC30) for 72 h; vehicle 0.1% DMSO in parallel plates. Measurement: 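CellTiter-Glo ATP signal, scaled to control siRNA as percent viability; sensitisation given as log2 of untreated divided by camptothecin-treated viability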. Scale: log2 vehicle/camptothecin viability: higher = stronger sensitisation to camptothecin. Active means: 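Active genes have an RSA gene-level p-value below 0.001, computed from the ratios of their separate siRNAs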.
Shown is an unselected part of about 26,000 deposited reagents. In the full data, 167 (0.63%) were called active. 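Calls are per gene from RSA p-values that are not deposited; an individual active-marked siRNA can sensitise only weakly.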 Reagents against one gene are numbered here. Further read-outs or replicates are left out here.

| gene symbol | reagent | log2 vehicle/camptothecin viability | activity call |
| --- | --- | --- | --- |
| IL36A | 1 | 0.015 | inactive |
| IL36A | 2 | -0.341 | inactive |
| IL36A | 3 | 0.0713 | inactive |
| PPP1R7 | 1 | -0.233 | inactive |
| PPP1R7 | 2 | -0.377 | inactive |
| PPP1R7 | 3 | -0.16 | inactive |
| PPP1R7 | 4 | -0.245 | inactive |
| PMS2 | 1 | -0.166 | inactive |
| PMS2 | 2 | -0.231 | inactive |
| PMS2 | 3 | -0.692 | inactive |
| PMS2 | 4 | -0.525 | inactive |

A run of entries from the list above, for reference:
| gene symbol | reagent | log2 vehicle/camptothecin viability | activity call |
| --- | --- | --- | --- |
| IL36A | 1 | 0.015 | inactive |
| IL36A | 2 | -0.341 | inactive |
| IL36A | 3 | 0.0713 | inactive |
| PPP1R7 | 1 | -0.233 | inactive |
| PPP1R7 | 2 | -0.377 | inactive |

The listing continues:
| gene symbol | reagent | log2 vehicle/camptothecin viability | activity call |
| --- | --- | --- | --- |
| PRDM2 | 1 | -0.214 | inactive |
| PRDM2 | 2 | 0.586 | inactive |
| PRDM2 | 3 | 0.185 | inactive |
| PRDM2 | 4 | 0.0792 | inactive |
| NR1H2 | 1 | 0.0951 | inactive |
| NR1H2 | 2 | 0.276 | inactive |
| NR1H2 | 3 | -0.0611 | inactive |
| ATP7B | 1 | -0.339 | inactive |
| ATP7B | 2 | 0.268 | inactive |
| ATP7B | 3 | -0.423 | inactive |
| ATP7B | 4 | 0.303 | inactive |
| PDE11A | 1 | -0.143 | inactive |
| PDE11A | 2 | -0.151 | inactive |
| PDE11A | 3 | 0.0454 | inactive |
| PDE11A | 4 | 0.0193 | inactive |
| CIT | 1 | -0.264 | inactive |
| CIT | 2 | -0.309 | inactive |
| CIT | 3 | -0.0269 | inactive |
| CIT | 4 | 0.00509 | inactive |
